Test results as given in patent US20250269025A1 (AVENCELL THERAPEUTICS, published 2025).
Results are given in words; binding and its absence hold for the method and conditions named. Some entries that bind do so weakly or less than the wild type. Where a sequence is shown, tags or fusion partners need not be part of it. No end group written: not given here.

Experiments:
[1] = target: T1, La epitope 5B9 (SEQ ID No. 28) fused to human Fc domain (human); assay: SPR (Biacore X100), La epitope 5B9-Fc coupled to CM5 chip, targeting module 2.47 to 200 nM
T1 sequence: KPLPEVTDEY

[2] = target: T1, La epitope 5B9 (SEQ ID No. 28) fused to human Fc domain (human); assay: SPR, La epitope 5B9-human Fc on CM5 chip

B1: targeting module according to SEQ ID No. 2 (reference) (bispecific antibody)
chain: EVQLQQSGPELVKPGASVKMSCKASGYTFTDYYMKWVKQSHGKSLEWIGDIIPSNGATFYNQKFKGKATLTVDRSSSTAYMHLNSLTSEDSAVYYCTRSHLLRASWFAYWGQGTLVTVSAASGGGGSGGGGSGGGGSDFVMTQSPSSLTVTAGEKVTMSCKSSQSLLNSGNQKNYLTWYLQKPGQPPKLLIYWASTRESGVPDRFTGSGSGTDFTLTISSVQAEDLAVYYCQNDYSYPYTFGGGTKLEIKAAARGQVQLVQSGAEVKKPGASVKVSCKASGYTFTHYYIYWVRQAPGQGLEWMGGVNPSNGGTHFNEKFKSRVTMTRDTSISTAYMELSRLRSDDTAVYYCARSEYDYGLGFAYWGQGTLVTVSSGGGGSGGGGSGGGGSDIVMTQSPDSLAVSLGERATINCKSSQSLLNSRTPKNYLAWYQQKPGQPPKLLIYWASTRKSGVPDRFSGSGSGTDFTLTISSLQAEDVAVYYCKQSYNLLTFGGGTKVEIKGPEQKLISEEDLNSAVDHHHHHH
notes: also called muCD123 + 5B9-VH-VL
- binding [1]: binds
- binding [2]: binds

B2: targeting module according to SEQ ID No. 3 (bispecific antibody)
chain: GQVQLVQSGAEVKKPGSSVKVSCKASGYTFTDYYIHWVRQAPGQGLEWMGDIIPSNGATFYNQRFKGRVTITADESTSTAYMELSSLRSEDTAVYYCTRSHLLRASWFAYWGQGTLVTVSSASGGGGSGGGGSGGGGSDIVMTQTPLSLSVTPGQPASISCRSSQSLLNSGNQKNYLTWYLQKPGQSPQLLIYWASTRFIGVPDRFSGSGSGTDFTLKISRVEAEDVGVYYCQNDYSYPYTFGQGTKLEIKAAARGDIVMTQSPDSLAVSLGERATINCKSSQSLLNSRTPKNYLAWYQQKPGQPPKLLIYWASTRKSGVPDRFSGSGSGTDFTLTISSLQAEDVAVYYCKQSYNLLTFGGGTKVEIKGGGGSGGGGSGASAAGGGGSGGGGSQVQLVQSGAEVKKPGASVKVSCKASGYTFTHYYIYWVRQAPGQGLEWMGGVNPSNGGTHFNEKFKSRVTMTRDTSISTAYMELSRLRSDDTAVYYCARSEYDYGLGFAYWGQGTLVTVSSGGGGSHHHHHHHH
notes: also called huCD123_1 + 5B9-VL-VH
- binding [1]: binds
- binding [2]: binds

B3: targeting module according to SEQ ID No. 4 (bispecific antibody)
chain: GQVQLVQSGAEVKKPGASVKMSCKASGYTFTDYYMKWVKQAPGQGLEWIGDIIPSNGATFYNQKFQGRATLTVDTSTSTAYMELSSLRSEDTAVYYCTRSHLLRASWFAYWGQGTLVTVSSASGGGGSGGGGSGGGGSDIVMTQSPDSLAVSLGERATINCKSSQSLLNSGNQKNYLTWYLQKPGQPPKLLIYWASTRESGVPDRFSGSGSGTDFTLTISSVQAEDVAVYYCQNDYSYPYTFGGGTKLEIKAAARGDIVMTQSPDSLAVSLGERVTMNCKSSQSLLNSRTPKNYLAWYQQKPGQSPKLLIYWASTRKSGVPDRFSGSGSGTDFTLTISSVQAEDVAVYYCKQSYNLLTFGGGTKLEIKGGGGSGGGGSGASAAGGGGSGGGGSQVQLVESGAEVVKPGASVKLSCKASGYAFTHYYIYWIKQAPGQGLEWIGGVNPSNGGTHFNEKFKSRATLTVDTSISTAYMELSRLRSDDTAVYYCTRSEYDYGLGFAYWGQGTLVTVSSGGGGSHHHHHHHH
notes: also called huCD123_2 + rs5B9-VLVH
- binding [1]: binds
- binding [2]: binds

B4: targeting module according to SEQ ID No. 5 (bispecific antibody)
chain: EVQLQQSGPELVKPGASVKMSCKASGYTFTDYYMKWVKQSHGKSLEWIGDIIPSNGATFYNQKFKGKATLTVDRSSSTAYMHLNSLTSEDSAVYYCTRSHLLRASWFAYWGQGTLVTVSAASGGGGSGGGGSGGGGSDFVMTQSPSSLTVTAGEKVTMSCKSSQSLLNSGNQKNYLTWYLQKPGQPPKLLIYWASTRESGVPDRFTGSGSGTDFTLTISSVQAEDLAVYYCQNDYSYPYTFGGGTKLEIKAAARGDIVMTQSPDSLAVSLGERATINCKSSQSLLNSRTPKNYLAWYQQKPGQPPKLLIYWASTRKSGVPDRFSGSGSGTDFTLTISSLQAEDVAVYYCKQSYNLLTFGGGTKVEIKGGGGSGGGGSGASAAGGGGSGGGGSQVQLVQSGAEVKKPGASVKVSCKASGYTFTHYYIYWVRQAPGQGLEWMGGVNPSNGGTHFNEKFKSRVTMTRDTSISTAYMELSRLRSDDTAVYYCARSEYDYGLGFAYWGQGTLVTVSSGGGGSHHHHHHHH
notes: also called R-TM123; muCD123 + 5B9-VL-VH
- binding [1]: binds
- binding [2]: binds

B5: targeting module according to SEQ ID No. 6 (bispecific antibody)
chain: EVQLQQSGPELVKPGASVKMSCKASGYTFTDYYMKWVKQSHGKSLEWIGDIIPSNGATFYNQKFKGKATLTVDRSSSTAYMHLNSLTSEDSAVYYCTRSHLLRASWFAYWGQGTLVTVSAASGGGGSGGGGSGGGGSDFVMTQSPSSLTVTAGEKVTMSCKSSQSLLNSGNQKNYLTWYLQKPGQPPKLLIYWASTRESGVPDRFTGSGSGTDFTLTISSVQAEDLAVYYCQNDYSYPYTFGGGTKLEIKAAARGDIVMTQSPDSLAVSLGERVTMNCKSSQSLLNSRTPKNYLAWYQQKPGQSPKLLIYWASTRKSGVPDRFSGSGSGTDFTLTISSVQAEDVAVYYCKQSYNLLTFGGGTKLEIKGGGGSGGGGSGASAAGGGGSGGGGSQVQLVESGAEVVKPGASVKLSCKASGYAFTHYYIYWIKQAPGQGLEWIGGVNPSNGGTHFNEKFKSRATLTVDTSISTAYMELSRLRSDDTAVYYCTRSEYDYGLGFAYWGQGTLVTVSSGGGGSHHHHHHHH
notes: also called muCD123 + rs5B9-VL-VH
- binding [1]: binds
- binding [2]: binds
